The target in assay [1] is His-tagged RIIa domain from RSP7 (Chlamydomonas). Nature of the assay: Ni-NTA pulldown of co-expressed proteins, Coomassie gel.
Assay [2] has the same target. Nature of the assay: Ni-NTA pulldown (discussion of Example 2).
For assay [3] the target is unchanged. As to the kind of experiment: Ni-NTA pulldown of co-expressed proteins.
Assay [4] shares this target. Nature of the assay: Ni-NTA pulldown (discussion of Example 1).

These are yes or no findings as the source states them, for the method shown. Binding seen in cells or lysates may run through a third protein. A result given as binding can be weak or reduced; the word gives no strength. Tags and fused reporters may be left off the sequences shown.

Consider PWLKEQAIGYLARGVVARRVVDKLVEDAA (peptide, not shown: a dimerising Fc or GST) [GST-tagged RSP3 280-308 (contains the Dpy-30-binding amphipathic helix AHD)], for which the binding entry in assay [1] was “no binding”.

B1: GST-tagged RSP3 96-180 (contains the RIIa-binding amphipathic helix AHR at a.a. 161-178) (protein, not shown: a dimerising Fc or GST)
chain: HIDIQTDVYLEELTDTVPEADTSTQTDAFLDRPPTPLFVPQKTGTDAITQIENGDLFDFDFEVEPILEVLVGKVLEQGLMEVLEE
As to B1, the binding entry in assay [2], in assay [1], in assay [3] and in assay [4] was “binds” each time.
